PubChem BioAssay AID1259308 | NCATS, 2017
This is a random part of about 59,000 reagents. About 1,510 of all reagents (2.6%) were called active. 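Calls use total luciferase alone and ignore viability, so some active siRNAs may act by altering cell number.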 The numbers tell different reagents against one gene apart.

Screen: 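Genes whose loss raises luciferase production in HEK293 cells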 (primary screen)
System: human HEK293 embryonic kidney cells stably expressing firefly luciferase (HEK-CMV-Luc2-Hygro)
Knock-down reagent: single siRNA against human genes, 0.8 pmol siRNA per well
Time to read-out: 72 h
Measured: 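Luciferase light (ONE-Glo) measured on one replicate plate set and viability (CellTiter-Glo) on the other, scaled to a negative control siRNA, with robust z-scores and luciferase per cell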
Direction: total luciferase, z-score and total luciferase, % of control: higher = more reporter protein produced; luciferase per cell, z-score: higher = more reporter output per viable cell; viable cells, % of control: higher = more viable cells
Active means: 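Active when the median/MAD z-score for overall luciferase is greater than 3; a gene was taken forward for validation with new siRNAs if at least two of its three siRNAs passed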
Calls: active = raised luciferase; inactive = no rise

gene,siRNA no.,"total luciferase, z-score","total luciferase, % of control","luciferase per cell, z-score","viable cells, % of control",outcome
POLH,1,0.352,88.9,0.846,79.5,inactive
POLH,2,-0.29,76.1,-0.924,108,inactive
POLH,3,-0.115,79.6,-0.668,106,inactive
SLC47A1,1,0.821,98.2,0.777,89.4,inactive
SLC47A1,2,0.921,100,1.49,75.7,inactive
SLC47A1,3,0.726,96.3,0.0577,106,inactive
UBAP2L,1,-0.199,77.9,-0.0253,87.7,inactive
UBAP2L,2,0.82,98.2,0.517,95.8,inactive
UBAP2L,3,1.05,103,0.642,97,inactive
MOV10L1,1,-1.64,49.4,-2.15,97.1,inactive
MOV10L1,2,0.362,89.1,-0.0293,100,inactive
MOV10L1,3,0.214,86.1,1.14,71.4,inactive
SLPI,1,-0.208,77.7,-0.0885,88.9,inactive
SLPI,2,-0.278,76.4,0.934,66.7,inactive
SLPI,3,0.226,86.4,-0.2,102,inactive
LACTB,1,0.695,95.7,0.346,97.6,inactive
LACTB,2,-1.04,61.3,-1.32,97,inactive
LACTB,3,-0.577,70.4,0.794,63.8,inactive
HBEGF,1,-0.15,78.9,-0.437,98.9,inactive
HBEGF,2,-0.29,76.1,-0.739,103,inactive
HBEGF,3,-0.363,74.7,-0.615,98.1,inactive
TRPV2,1,1.08,103,1.16,85.2,inactive
TRPV2,2,-0.445,73,-0.726,98.8,inactive
TRPV2,3,0.184,85.5,-0.877,120,inactive
PANX1,1,-0.761,66.8,-0.0459,75.5,inactive
PANX1,2,-0.892,64.2,-0.912,91.2,inactive
PANX1,3,-0.816,65.7,-0.274,78.9,inactive
PRY,1,0.411,90.1,0.0682,98.9,inactive
PRY,2,0.523,92.3,0.699,85.8,inactive
PRY,3,3.25,147,2.12,93.6,active
FOXH1,1,-0.0113,81.7,-0.855,114,inactive
FOXH1,2,0.724,96.3,0.0058,107,inactive
FOXH1,3,0.689,95.6,0.397,96.2,inactive
PEG10,1,-0.229,77.3,-0.86,108,inactive
PEG10,2,0.276,87.4,-0.0312,98.4,inactive
PEG10,3,-1.21,57.8,-2.17,114,inactive
RFX5,1,0.513,92.1,0.681,86,inactive
RFX5,2,5,181,3.18,87.8,active
RFX5,3,-0.335,75.2,0.139,81,inactive

As entered above.
UBAP2L #1, outcome = inactive
Result for UBAP2L #3 in “total luciferase, z-score”: 1.05
Value of PEG10 #1 under “outcome”: inactive
For “outcome”, MOV10L1 #1 reads inactive
